Laboratory results taken from PMC10875708 (2024).
No constants are given. Whether binding was seen depends on the method and setting. In cells and extracts the contact can be indirect. These calls come from enrichment with a bait or labelling near it, and not all partners need be listed.

Amino acid sequences for entries named in this document (tags omitted).
UniProt Q9UQE7: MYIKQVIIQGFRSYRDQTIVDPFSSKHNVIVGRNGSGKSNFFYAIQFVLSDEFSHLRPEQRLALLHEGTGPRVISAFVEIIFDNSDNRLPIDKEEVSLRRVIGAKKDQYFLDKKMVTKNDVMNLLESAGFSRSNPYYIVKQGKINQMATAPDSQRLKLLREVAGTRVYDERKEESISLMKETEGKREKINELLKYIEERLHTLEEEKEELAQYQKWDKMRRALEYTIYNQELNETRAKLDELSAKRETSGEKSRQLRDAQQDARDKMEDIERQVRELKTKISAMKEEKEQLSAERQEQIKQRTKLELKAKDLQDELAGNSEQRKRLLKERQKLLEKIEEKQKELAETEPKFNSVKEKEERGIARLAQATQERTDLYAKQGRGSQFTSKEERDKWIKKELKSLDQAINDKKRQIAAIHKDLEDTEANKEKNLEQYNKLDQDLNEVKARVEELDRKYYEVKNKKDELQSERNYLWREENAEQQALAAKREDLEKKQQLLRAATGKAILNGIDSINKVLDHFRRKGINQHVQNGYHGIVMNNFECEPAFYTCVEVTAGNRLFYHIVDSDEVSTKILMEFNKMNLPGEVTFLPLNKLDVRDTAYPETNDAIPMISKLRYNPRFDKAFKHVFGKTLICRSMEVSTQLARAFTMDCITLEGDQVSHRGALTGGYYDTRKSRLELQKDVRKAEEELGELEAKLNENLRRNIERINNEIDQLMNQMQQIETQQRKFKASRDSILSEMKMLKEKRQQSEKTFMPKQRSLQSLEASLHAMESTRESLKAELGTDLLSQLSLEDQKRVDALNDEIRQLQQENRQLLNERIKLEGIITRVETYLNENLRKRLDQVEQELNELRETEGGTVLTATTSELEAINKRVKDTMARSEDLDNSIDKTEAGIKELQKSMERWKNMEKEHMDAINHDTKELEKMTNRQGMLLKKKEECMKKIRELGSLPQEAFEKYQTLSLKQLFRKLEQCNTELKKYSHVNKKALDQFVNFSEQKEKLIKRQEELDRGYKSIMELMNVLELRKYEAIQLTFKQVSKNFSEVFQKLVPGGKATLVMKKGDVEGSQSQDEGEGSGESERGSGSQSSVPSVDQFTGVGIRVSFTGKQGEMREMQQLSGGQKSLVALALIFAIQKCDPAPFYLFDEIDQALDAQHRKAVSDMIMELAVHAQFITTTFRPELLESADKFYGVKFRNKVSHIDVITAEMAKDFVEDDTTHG

T1: Sulfotransferase family 2B member 1 (SULT2B1) (human (endogenous in HCT116)) (UniProt O00204)
T1 sequence: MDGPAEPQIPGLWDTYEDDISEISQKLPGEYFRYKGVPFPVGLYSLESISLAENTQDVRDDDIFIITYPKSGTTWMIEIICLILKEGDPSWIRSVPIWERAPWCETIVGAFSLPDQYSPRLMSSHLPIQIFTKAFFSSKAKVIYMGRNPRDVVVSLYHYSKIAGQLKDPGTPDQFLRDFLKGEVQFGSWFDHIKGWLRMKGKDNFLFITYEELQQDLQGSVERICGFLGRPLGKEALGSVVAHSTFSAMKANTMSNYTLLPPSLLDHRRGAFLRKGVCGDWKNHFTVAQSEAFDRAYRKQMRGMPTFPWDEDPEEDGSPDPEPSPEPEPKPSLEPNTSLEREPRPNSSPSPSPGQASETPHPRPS


Molecular target: T1, Sulfotransferase family 2B member 1 (SULT2B1) (human (endogenous in HCT116))
Experiment: affinity purification with mass spectrometry; IP of SULT2B1 from HCT116 whole-cell extract; bands stained with Coomassie, digested in gel, LC-MS/MS, searched against SwissProt Human

binding | Molecule
binds | Structural maintenance of chromosomes 3 (SMC3) (from UniProt Q9UQE7 1-1217)
binds | Structural maintenance of chromosomes 1A (SMC1A) (protein, UniProt Q14683 1-1233) MGFLKLIEIENFKSYKGRQIIGPFQRFTAIIGPNGSGKSNLMDAISFVLGEKTSNLRVKTLRDLIHGAPVGKPAANRAFVSMVYSEEGAEDRTFARVIVGGSSEYKINNKVVQLHEYSEELEKLGILIKARNFLVFQGAVESIAMKNPKERTALFEEISRSGELAQEYDKRKKEMVKAEEDTQFNYHRKKNIAAERKEAKQEKEEADRYQRLKDEVVRAQVQLQLFKLYHNEVEIEKLNKELASKNKEIEKDKKRMDKVEDELKEKKKELGKMMREQQQIEKEIKEKDSELNQKRPQYIKAKENTSHKIKKLEAAKKSLQNAQKHYKKRKGDMDELEKEMLSVEKARQEFEERMEEESQSQGRDLTLEENQVKKYHRLKEEASKRAATLAQELEKFNRDQKADQDRLDLEERKKVETEAKIKQKLREIEENQKRIEKLEEYITTSKQSLEEQKKLEGELTEEVEMAKRRIDEINKELNQVMEQLGDARIDRQESSRQQRKAEIMESIKRLYPGSVYGRLIDLCQPTQKKYQIAVTKVLGKNMDAIIVDSEKTGRDCIQYIKEQRGEPETFLPLDYLEVKPTDEKLRELKGAKLVIDVIRYEPPHIKKALQYACGNALVCDNVEDARRIAFGGHQRHKTVALDGTLFQKSGVISGGASDLKAKARRWDEKAVDKLKEKKERLTEELKEQMKAKRKEAELRQVQSQAHGLQMRLKYSQSDLEQTKTRHLALNLQEKSKLESELANFGPRINDIKRIIQSREREMKDLKEKMNQVEDEVFEEFCREIGVRNIREFEEEKVKRQNEIAKKRLEFENQKTRLGIQLDFEKNQLKEDQDKVHMWEQTVKKDENEIEKLKKEEQRHMKIIDETMAQLQDLKNQHLAKKSEVNDKNHEMEEIRKKLGGANKEMTHLQKEVTAIETKLEQKRSDRHNLLQACKMQDIKLPLSKGTMDDISQEEGSSQGEDSVSGSQRISSIYAREALIEIDYGDLCEDLKDAQAEEEIKQEMNTLQQKLNEQQSVLQRIAAPNMKAMEKLESVRDKFQETSDEFEAARKRAKKAKQAFEQIKKERFDRFNACFESVATNIDEIYKALSRNSSAQAFLGPENPEEPYLDGINYNCVAPGKRFRPMDNLSGGEKTVAALALLFAIHSYKPAPFFVLDEIDAALDNTNIGKVANYIKEQSTCNFQAIVISLKEEFYTKAESLIGVYPEQGDCVISKVLTFDLTKYPDANPNPNEQ
